Laboratory results from the supplement of paper PMC10735217.
Where a name gives a salt, the structure may show the parent alone. The list shows a part of the results. Repeats in this data set agree poorly, so a single value says little.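 Human kidney-derived cells stably carry a construct in which eight TEAD-binding elements drive luciferase, measured by luminescence in a drug-repurposing library screen. A hit is any compound whose signal exceeds the plate mean by more than five robust Z scores.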

System: HEK293A TEAD-LUC reporter
Experiment: TEAD-luciferase reporter activity (YAP activation), robust Z score vs plate; higher = stronger YAP/TEAD activation
Settings: 24 h

Row | SMILES | TEAD-luciferase reporter activity (compound concentration: 200 nM) | TEAD-luciferase reporter activity (compound concentration: 2 uM) | TEAD-luciferase reporter activity (compound concentration: 10 uM)
1 | Nc1ccc(SC[C@@H]2CO[C@](CCc3ccc(Cl)cc3)(Cn3ccnc3)O2)cc1 [Azalanstat] | inactive: 0.673 | inactive: 0.652 | inactive: 3.19
2 | OCCn1cc(-c2cnc3nnn(Cc4ccc5ncccc5c4)c3n2)cn1 | inactive: -1.6 | inactive: 0.865 | inactive: 3.63
3 | CCCn1c(=O)c2nc(C3CCCC3)[nH]c2n(CCC)c1=O | inactive: -1.09 | inactive: -1.5 | inactive: 2.39
4 | O=C(O)CSC(SCC(=O)O)SCC(=O)O [Ritiometan] | inactive: 0.512 | inactive: 0.875 | inactive: 1.06
5 | Cc1ccc(F)cc1Cn1c(N2CCCC(C)(N)C2)cc2c1c(=O)n(C)c(=O)n2C (stereo not drawn) | inactive: 0.392 | inactive: -0.91 | inactive: 3.34
6 | CC(C(=O)O)c1ccc(C(=O)c2ccccc2)s1 (stereo not drawn) [tiaprofenic acid] |  | inactive: -0.995 | 
7 | CC(C(=O)O)c1ccc(C(=O)c2ccccc2)s1 (stereo not drawn) | inactive: -0.191 |  | inactive: 0.668
8 | CC(=O)O[C@H]1C[C@@H]2CC[C@@H]3[C@H](CC[C@@]4(C)[C@H]3C[C@H](N3CC[N+](C)(C)CC3)[C@@H]4OC(C)=O)[C@@]2(C)C[C@@H]1N1CC[N+](C)(C)CC1 [pipecuronium bromide] | inactive: -1.29 |  | inactive: -0.132
9 | COc1cc2c3cc1Oc1cc(ccc1O)C[C@@H]1c4c(cc(OC)c(O)c4Oc4ccc(cc4)C[C@@H]3N(C)CC2)CC[N+]1(C)C | inactive: -0.0565 | inactive: 0.941 | active: 7.29
10 | COc1ccccc1N1CCN(CCCC(=O)c2ccc(F)cc2)CC1 [Fluanisone] | inactive: 0.463 |  | inactive: -0.879
11 | COc1ccccc1N1CCN(CCCC(=O)c2ccc(F)cc2)CC1 |  | inactive: -1.41 | 
12 | CN(C)CCN1C(=O)c2cccc3cc([N+](=O)[O-])cc(c23)C1=O [Mitonafide] | inactive: -1.01 | inactive: 3.35 | inactive: 1.78
13 | CC(=O)Nc1ccc([C@H](C)C(=O)Nc2ncc(C(C)C)s2)cc1 | inactive: -0.254 | inactive: -1.48 | inactive: 0.5
14 | CO[C@@]1(NC(=O)CSC(F)F)C(=O)N2C(C(=O)O)=C(CSc3nnnn3CCO)CO[C@@H]21 [flomoxef] | inactive: 0.578 | inactive: -1.06 | inactive: -1.41
15 | CCCCCCCCCCCC(=O)OCC(O)CO (stereo not drawn) [Glycerol monolaurate] | inactive: 0.941 | inactive: -0.592 | inactive: 0.671
16 | N#CNC(=N)NCCCCCCNC(=N)NC(=N)NCCCCCCN | inactive: -1.37 | inactive: 0.604 | inactive: 0.533
17 | CC(CN1c2ccccc2Sc2ccc(S(=O)(=O)N(C)C)cc21)N(C)C (stereo not drawn) | inactive: 0.41 | inactive: 0.525 | inactive: 1.78
18 | CCN(c1nc(C)cc(N2CC=C(c3cccc(F)c3)CC2)n1)c1ccc(C(C)C)cc1Br | inactive: 0.313 | inactive: 1.29 | inactive: 1.9

Row | SMILES | TEAD-luciferase reporter activity (compound concentration: 200 nM) | TEAD-luciferase reporter activity (compound concentration: 2 uM) | TEAD-luciferase reporter activity (compound concentration: 10 uM)
19 | C[C@H](NC(=O)CNC(=O)C1CCCCC1)C(=O)N[C@H](Cc1c[nH]c2ccccc12)C(=O)N[C@@H](Cc1ccccc1)C(=O)N(C)C | inactive: -1.96 | inactive: 4.34 | inactive: -0.0828
20 | Cc1ccc(CN2CCCC23Cc2ccccc2CNC3=O)cc1C (stereo not drawn) | inactive: -0.745 |  | inactive: -0.538
21 | CC(C)c1cc2c(cc1S(=O)(=O)O)[C@@]1(C)CCC[C@@](C)(C(=O)O)[C@@H]1CC2 [ecabet, Tanabe AAI] | inactive: -0.656 | inactive: -0.499 | inactive: 1.33
22 | CCCCCCCC(=O)CC[C@@H]1[C@@H](C/C=C\CCCC(=O)O)[C@@H](O)C[C@H]1O [Unoprostone] | inactive: 0.662 | inactive: -0.32 | inactive: 1.48
23 | CC(C(=O)O)c1ccc(C2CCC/C(=N\O)C2)cc1 (stereo not drawn) [Ximoprofen] | inactive: -0.674 | inactive: -0.276 | inactive: 0.626
24 | Oc1c(Br)cc(Br)c2cccnc12 | inactive: 4.34 | inactive: -0.461 | inactive: -0.549
25 | Nc1ccc(O)c(C(=O)O)c1 [5-Amino-2-hydroxy-benzoic acid89-57-6] | inactive: -0.722 |  | inactive: -1.05
26 | Nc1ccc(O)c(C(=O)O)c1 [mesalamine, Lupin] |  | inactive: -2.12 | 
27 | CC1CCC(C(=O)N(c2cc(-c3ccccc3)sc2C(=O)O)[C@H]2CC[C@H](O)CC2)CC1 (stereo partly drawn) | inactive: -0.595 | inactive: 0.594 | inactive: 0.496
28 | Cc1c(C(=O)NN2CCCCC2)nn(-c2ccc(Cl)cc2Cl)c1-c1ccc(I)cc1 | inactive: 0.221 | inactive: 0.555 | inactive: 2.29
29 | CC[C@]1(C)NC(=O)[C@H](Cc2cccs2)NC(=O)[C@@H](Cc2ccccc2)NC(=O)CCCSCC(C(=O)N2C[C@H](O)C[C@H]2C(=O)N[C@H](CCCNC(=N)N)C(=O)NCC(N)=O)NC(=O)[C@H](CC(N)=O)NC1=O (stereo partly drawn) | inactive: 0.824 | inactive: 0.837 | inactive: -1.24
30 | CN(C)CCCn1cc(-c2ccccc2)c(-c2ccccc2)n1 [Fezolamine fumarate] | inactive: -0.195 | inactive: 0.764 | active: 9.05
31 | O=C1C[C@@H]2CCN(C(=O)C3CCCC3)C[C@@H]2CCN1 | inactive: -0.368 |  | inactive: 3.51
32 | CN1[C@@H]2CC[C@H]1C[C@@H](NC(=O)c1cn(C3CCCCC3)c3ccccc3c1=O)C2 | inactive: 0.0524 | inactive: -1.16 | inactive: 1.41
33 | COc1cc2ncnc(Nc3ccc(F)c(Cl)c3)c2cc1OCCCN1CCOCC1 [gefitinib] | inactive: -1.33 | inactive: -0.522 | inactive: 1.78
34 | CC#CC(=O)N1CC[C@@H](n2c(=O)n(-c3ccc(Oc4ccccc4)cc3)c3c(N)ncnc32)C1 | inactive: -1.12 | inactive: -1.79 | inactive: -0.532
35 | CC(=O)N(O)C(C)/C=C/c1cccc(Oc2cccc(F)c2)c1 (stereo not drawn) | inactive: 1.89 | inactive: -0.0216 | inactive: -1.08

Shown field by field: part of the list above
CN(C)CCCn1cc(-c2ccccc2)c(-c2ccccc2)n1 [Fezolamine fumarate]
  TEAD-luciferase reporter activity (compound concentration: 200 nM): inactive: -0.195
  TEAD-luciferase reporter activity (compound concentration: 2 uM): inactive: 0.764
  TEAD-luciferase reporter activity (compound concentration: 10 uM): active: 9.05
O=C1C[C@@H]2CCN(C(=O)C3CCCC3)C[C@@H]2CCN1
  TEAD-luciferase reporter activity (compound concentration: 200 nM): inactive: -0.368
  TEAD-luciferase reporter activity (compound concentration: 10 uM): inactive: 3.51
CN1[C@@H]2CC[C@H]1C[C@@H](NC(=O)c1cn(C3CCCCC3)c3ccccc3c1=O)C2
  TEAD-luciferase reporter activity (compound concentration: 200 nM): inactive: 0.0524
  TEAD-luciferase reporter activity (compound concentration: 2 uM): inactive: -1.16
  TEAD-luciferase reporter activity (compound concentration: 10 uM): inactive: 1.41
